The target in assay [1] is PYCR1_P32322_95_HIVVSCAAGVTISSIEK (UniProt P32322). Kind of assay: probe-labelled cysteine peptide fold change vs DMSO (competition) (log2 fold change); higher = less target engagement (more negative = stronger competition). To be noted: THP-1, incubation time: 4 h.
Assay [2] addresses PYCR2_Q96C36_95_HIVVSCAAGVTISSVEK (UniProt Q96C36). The assay is described as above. Conditions: THP-1, incubation time: 4 h.

Each structure is given as a SMILES string. Some of the results follow.
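Also: competitive profiling in live THP-1 cells: cysteine peptides tagged with an iodoacetamide desthiobiotin (IA-DTB) probe, intensity after compound treatment relative to DMSO-treated cells.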

Turning to `Cc1cc(C(=O)N2CCCN(C(=O)CCl)CC2)ccc1-c1ccccc1` [compound 10], the “probe-labelled cysteine peptide fold change” value worked out at 0.0538 in assay [1] (10 µM), 0.149 in assay [1] (50 µM), 0.169 in assay [2] (10 µM) and 0.286 in assay [2] (50 µM).

The values are drawn from the supplement of paper PMC12067093, “Discovery and optimisation of a covalent ligand for TRIM25 and its application to targeted protein ubiquitination” (Chemical Science, 2025).
